Measurements published in doi:10.1101/2021.10.15.464533.

Target: T1, … (PI) fused to TurboID and 3xMyc (Arabidopsis), P48007
T1 chain: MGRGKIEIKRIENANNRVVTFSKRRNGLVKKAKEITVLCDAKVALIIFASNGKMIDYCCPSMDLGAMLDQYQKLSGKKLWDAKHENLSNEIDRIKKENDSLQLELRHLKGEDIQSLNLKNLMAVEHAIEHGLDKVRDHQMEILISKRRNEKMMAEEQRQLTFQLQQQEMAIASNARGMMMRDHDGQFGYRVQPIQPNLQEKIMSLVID
Test: proximity labelling
Conditions: remark: other sources report otherwise

binding: binds
B1: APETALA3 (AP3) fused to GFP, P35632 1-232 (protein)
chain: MARGKIQIKRIENQTNRQVTYSKRRNGLFKKAHELTVLCDARVSIIMFSSSNKLHEYISPNTTTKEIVDLYQTISDVDVWATQYERMQETKRKLLETNRNLRTQIKQRLGECLDELDIQELRRLEDEMENTFKLVRERKFKSLGNQIETTKKKNKSQQDIQKNLIHELELRAEDPHYGLVDNGGDYDSVLGYQIEGSRAYALRFHQNHHHYYPNHGLHAPSASDIITFHLLE
modifications: here or on the partner: biotinylated by PI-TurboID (sites not given); likely auto-biotinylated (sites not given)

Results are given in words; binding and its absence hold for the method and conditions named. Binding seen in cells or lysates may run through a third protein. Here binding means that the protein was enriched with, or labelled near, the bait; the list need not be complete. Tags and fused reporters may be left off the sequences shown.
